{"source": "PubChem BioAssay AID1347075", "about": "(National Center for Advancing Translational Sciences (NCATS), 2019)", "note": "Hit rate of the full screen: of about 400,000 compounds, about 5,500 (1.4%) were called active. Inconclusive means that the source gave no clear call. Such entries were picked first, then a sample of the others. The call rests on the fitted dose curve; in most records, active means well fitted cell-killing curve with a large enough effect; inconclusive means small, poorly fitted or top-dose-only effect, or effect the other way; inactive means flat fitted curve, though single readings scatter. Potencies beside an inconclusive call are fits to weak or partial responses and may not hold up. On the % scale 0 is the no-effect control and ±100 the full control effect; potency means the concentration at half of the fitted maximal effect."}
{"assay": "qHTS assay for MDR1-selective chemotherapeutics: Primary screen using the parental adenocarcinoma cell KB-3-1; further: nearly all actives have a fitted effect of over 60% in size", "conditions": "KB-3-1 viability, CellTiter-Glo ATP luminescence, 72 h; activity change, negative = cytotoxic: at 46.1 µM (top of the series)", "how_it_was_run": "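Cytotoxicity measured as CellTiter-Glo luminescence after 72 h at 37 C. Compound titrations were pinned onto drug-naive KB-3-1 parental adenocarcinoma cells grown in DMEM with 10% FBS, and normalized data fitted to concentration-response curves.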"}
{"smiles": "OC(c1ccc(F)cc1)c1nc(-c2ccc(Cl)cc2)cs1", "note": "(stereo not given)", "Potency": "inactive"}
{"smiles": "Cc1cc(Cl)ccc1OCC(=O)Nc1ccccc1C(=O)N1CCOCC1", "Potency": "inconclusive: 29.1 µM [rising, single point]"}
{"smiles": "CC(C)CCNC(=O)C1CCCN(S(=O)(=O)c2ccc(-n3cnnn3)cc2)C1", "note": "(stereo not given)", "Potency": "inconclusive: 29.1 µM [rising, single point]"}
{"smiles": "CC(=O)N1CCCc2cc(S(=O)(=O)N3CCC(C(=O)NCCC(C)C)CC3)ccc21", "Potency": "inactive"}
{"smiles": "COc1ccc(/C=C/CN2CCCC(C(=O)c3ccc(OC)c(F)c3)C2)cc1", "note": "(stereo not given)", "Potency": "inconclusive: 29.1 µM [cytotoxic, single point]"}
{"smiles": "COc1cc(/C=N\\Nc2nncn2N)ccc1OC(C)=O", "Potency": "inactive"}
{"smiles": "COc1ccccc1NC(=O)n1ncc2c(C)cccc21", "Potency": "inactive"}
{"smiles": "CC(C)=CC(=O)Nc1nc2ccc([N+](=O)[O-])cc2s1", "Potency": "inactive"}
{"smiles": "O=C(Nc1ccc(F)cc1)N1CCCN(c2ccc(C(F)(F)F)cn2)CC1", "Potency": "inconclusive: 29.1 µM [cytotoxic, single point]"}
{"smiles": "COc1ccc(S(=O)(=O)N2CCCCCC2)cc1C(=O)Nc1cc(C)ccn1", "Potency": "inconclusive: 29.1 µM [cytotoxic, single point]"}
{"smiles": "CC(C)CC(=O)NC(=S)Nc1nc(-c2cccc3ccccc23)cs1", "Potency": "inconclusive: 29.1 µM [cytotoxic, single point]"}
{"smiles": "COc1ccc(-c2c(-c3ccc4c(c3)OCO4)noc2C)cn1", "Potency": "inconclusive: 18.4 µM [cytotoxic, single point]"}
{"smiles": "CCC(C)n1ncn(-c2ccc(N3CCN(c4ccc(O)cc4)CC3)cc2)c1=O", "note": "(stereo not given)", "Potency": "active: 1.46 µM"}
{"smiles": "Cc1ccc(C)c(S(=O)(=O)N2CCCCC2CCNC(=O)C(=O)NCc2ccco2)c1", "note": "(stereo not given)", "Potency": "inconclusive: 29.1 µM [cytotoxic, single point]"}
{"smiles": "COc1ccc(/C=C2\\C(=O)c3ccccc3OC2c2ccccc2)cc1", "note": "(stereo not given)", "Potency": "inconclusive: 18.4 µM [cytotoxic, single point]"}
{"smiles": "CSc1ccc(CNC(=O)CCn2ccc3cc(S(=O)(=O)N4CCCC4)ccc32)cc1", "Potency": "inconclusive: 29.1 µM [cytotoxic, single point]"}
{"smiles": "COc1ccc(CCNC(=O)c2cc3ccc(Cl)cc3nc2N)cc1", "Potency": "inconclusive: 14.6 µM [cytotoxic, partial curve]"}
{"smiles": "O=C(NCCc1csc(-c2cccnc2)n1)c1cccc(C(F)(F)F)c1", "Potency": "inconclusive: 23.1 µM [cytotoxic, single point]"}
{"smiles": "Cc1ccc(N2C(=O)c3cccc4c([N+](=O)[O-])ccc(c34)C2=O)c2cccnc12", "Potency": "active: 0.0651 µM"}
{"smiles": "CC(=O)Nc1cc2c3c(cccc3c1)-c1ccccc1-2", "Potency": "inactive"}
{"smiles": "CC(C)CC1NC(=O)N(CC(=O)Nc2cc([N+](=O)[O-])ccc2F)C1=O", "note": "(stereo not given)", "Potency": "inconclusive: 29.1 µM [cytotoxic, single point]"}
{"smiles": "CCCCCn1c(N2CCC(Cc3ccccc3)CC2)nc2c1c(=O)[nH]c(=O)n2C", "Potency": "inconclusive: 25.9 µM [cytotoxic, single point]"}
{"smiles": "CCOc1cc(S(=O)(=O)n2ccnc2)ccc1Cl", "Potency": "inactive"}
{"smiles": "COc1ccc(C(=O)NCCc2ccc(Cl)cc2)cc1S(=O)(=O)N1CCCCC1C", "note": "(stereo not given)", "Potency": "inconclusive: 23.1 µM [cytotoxic, single point]"}
{"smiles": "O=C(c1ccc([N+](=O)[O-])cc1Cl)N1CCN(c2ccccn2)CC1", "Potency": "inactive"}
{"smiles": "COc1cc(C(=O)NCC(c2ccco2)N(C)C)cc(OC)c1OC", "note": "(stereo not given)", "Potency": "inactive"}
{"smiles": "Cc1nnc(SC(C)C(=O)NC2CCCc3ccccc32)n1-c1ccccc1", "note": "(stereo not given)", "Potency": "inconclusive: 2.91 µM [rising, partial curve, poor fit]"}
{"smiles": "COc1ccccc1N1CCN(CCCCN2C(=O)C3CCCCN3C2=O)CC1", "note": "(stereo not given)", "Potency": "inactive"}
{"smiles": "O=C(/C=C/c1cn(CC(O)CN2CCCCCC2)c2ccccc12)c1ccccc1", "note": "(stereo not given)", "Potency": "inconclusive: 29.1 µM [cytotoxic, single point]"}
{"smiles": "COc1ccc(C2CC(c3ccc(OC)cc3)n3nc(NC(=O)c4ccco4)nc3N2)cc1", "note": "(stereo not given)", "Potency": "inconclusive: 16.4 µM [rising, partial curve, poor fit]"}
{"smiles": "CN1CCN(C2=C(Cl)C(=O)N(C3CCCCC3)C2=O)CC1", "Potency": "inconclusive: 20.6 µM [cytotoxic, single point]"}
{"smiles": "O=C(COC(=O)/C=C/c1cccc(F)c1)NC(=O)NCc1ccccc1", "activity change, negative = cytotoxic": "inconclusive: 0%"}
{"smiles": "Cc1oc(-c2cccc(Cl)c2)nc1CS(=O)(=O)CC(=O)NCCCN1CCOCC1", "Potency": "inconclusive: 10.3 µM [rising, partial curve, poor fit]"}
{"smiles": "CSc1nc(NC(C)(C)C)nc(Oc2ccc(=O)n(C)n2)n1", "Potency": "inactive"}
{"smiles": "CC(C)C[C@@H](CNCC(=O)[C@H](CC(=O)O)NC(=O)c1[nH]cnc1C(=O)N[C@H](CN)CC(C)C)NC(=O)c1nc[nH]c1C(=O)N[C@@H](C)C(=O)O", "Potency": "inactive"}
{"smiles": "Cc1[nH]c(C)c(S(=O)(=O)NCc2ccco2)c1C(=O)N1CCCCC1", "Potency": "inactive"}
{"smiles": "CC(C)CC(c1nnnn1Cc1ccco1)N1CCN(c2cccc(Cl)c2)CC1", "note": "(stereo not given)", "Potency": "active: 10.3 µM"}
{"smiles": "NC(=O)CS(=O)(=O)c1nc2ccccc2n1CC(=O)N1CCCCC1", "Potency": "inconclusive: 14.6 µM [cytotoxic, single point]"}
{"smiles": "Cn1c(SCC(=O)c2ccc(-c3ccccc3)cc2)nnc1-c1ccco1", "Potency": "inconclusive: 0.0326 µM [cytotoxic, full curve]"}
{"smiles": "CN(CCc1ccccc1)C(=O)c1ccc(NC(=O)Cc2ccc(NC(=O)C3CCN(C(=O)C4CCCC4)CC3)cc2)cc1", "Potency": "inconclusive: 29.1 µM [cytotoxic, single point]"}
{"smiles": "COc1ccc(NC(=O)CSc2nc3[nH]ncc3c(=O)[nH]2)c(OC)c1", "Potency": "inactive"}
{"smiles": "O=C1CC(/C=C/c2ccc(Cl)cc2)=Nc2ccccc2N1", "Potency": "inconclusive: 29.1 µM [cytotoxic, single point]"}
{"smiles": "COc1ccc(-c2c(C)nn3c4c(cnc23)C(=O)CC(c2ccc(C)cc2)C4)cc1", "note": "(stereo not given)", "Potency": "inactive"}
{"smiles": "Cc1cccc(Cn2c(CN3CCC(C(=O)NCCc4ccccc4)CC3)cc3ccccc32)c1", "Potency": "inconclusive: 23.1 µM [cytotoxic, single point]"}
{"smiles": "CC(NC(=O)COc1ccc(/C=N/NC(=O)C(=O)Nc2ccccc2Br)cc1)c1ccccc1", "note": "(stereo not given)", "Potency": "inconclusive: 20.6 µM [cytotoxic, single point]"}
